In the supplement of paper PMC5949888 one finds growth estimate data, which are given here for 118 substances.

± gives the standard deviation of the averaged measurements. Most values lie at the floor of the assay. Slopes are relative: functional sequences can read slightly below zero.

The subject of this data set is Saccharomyces cerevisiae PS128 hsf1 delta, HSF1(1-493) fusion. The data set is described as follows: growth estimate (transactivation domain function in HSF1 fusion, heat-shock survival) (a.u. (slope of normalised read count over time)); higher = stronger growth at 37°C, i.e. more transactivation activity. The following applies: library: random library.
For the substance RCSRMRPVYRVDRETAT, the growth estimate was less than -0.25. In the case of GTTVESISVPGTISWNGNVA, the growth estimate was less than -0.25. Turning to FFLVLADETG, the growth estimate is less than -0.25. As to LDDLAGVT, the growth estimate is less than -0.25. The figure for EAYGV is less than -0.25; for EQVPSSRVHASSPPKN it is less than -0.25; for RGIGFIKRHSAPKRRRFQCA it is less than -0.25. In the case of WQICPRASLIC it was less than -0.25.

Regarding RSLRSEVYKSKVTVPRHEGR, the growth estimate is less than -0.25. In the case of MHA it was less than -0.25.

In the case of SFA, the growth estimate was less than -0.25. WGGGLRVGQLSGQVSLRFFC: the growth estimate was less than -0.25. In the case of HTDGPYPTRW it was less than -0.25. The figure for VVSAASVNCRVRDLYRQLGQ is less than -0.25.

Regarding QEGFSRRFGWDAALKLVEYM, the growth estimate was less than -0.25. As for TQRHGNHGHVYVVN, the growth estimate was less than -0.25. The figure for WVGNT is -0.231; for PTAVGSRYIHFLSQFF it is less than -0.25; for PYHGSPRLRPL it is less than -0.25. In the case of RVYNGYSCKLE it was less than -0.25; in that of RKVRWRNRFVERKMAHCGYV, less than -0.25. Regarding SSGGTCIETG, the growth estimate was less than -0.25. The figure for SCIGSMSVSGVGR is less than -0.25; for RHGDGRM it is less than -0.25. In the case of TLEQEMGRETNIM it was less than -0.25. Turning to RSGSSVWLVLFCYRGKPDTH, the growth estimate is less than -0.25.

In the case of SKR, the growth estimate is less than -0.25. In the case of IECQWYFKLHSGVGRETLYW it was less than -0.25; in that of VRTTVLIRNLTSPQNVARLR, less than -0.25.

Take CFVVVGKS: the growth estimate is less than -0.25.

Regarding CATGD, the growth estimate was less than -0.25. In the case of HRDWPPPE it was less than -0.25.

Take DEPGRSRYRTGGMKGGAQAK: the growth estimate was less than -0.25. In the case of LLSALGRSYRLVENLAR it was less than -0.25. The figure for IVKSKAVII is less than -0.25; for VGIAEEAQGWFPVGTSLRYR it is less than -0.25. The figure for LSNDHTENRLL is less than -0.25. Regarding YVYR, the growth estimate is less than -0.25. In the case of GPSGRSEVCDDVQSDIA it was less than -0.25; in that of SALEVSWI, less than -0.25.

For RLLDALAS, the growth estimate is less than -0.25. The figure for VTPAGAHRLC is less than -0.25; for IFA it is less than -0.25.

As for FPLHRESERDPAAWWARLST, the growth estimate was less than -0.25. In the case of VPQSYP it was less than -0.25. The figure for RLLLQLAGLRSESTSTI is less than -0.25; for AQLGRLHWVYCLDVGLALRR it is less than -0.25. Turning to LINVQSLSLNSSRTKTGVGP, the growth estimate was less than -0.25. Regarding VPVKEPPNATCSTSSTFGIR, the growth estimate was less than -0.25. In the case of RTRLQGSVGIRLAGSLSGLA, the growth estimate was less than -0.25. The figure for QTVNATGRARQSRTIPSTQA is less than -0.25. The figure for LVTL is less than -0.25. Consider EFYFERVGTIGCDVNRG, for which the growth estimate is less than -0.25. The figure for ELRRFLLGLMEDRICSNTRS is -0.243. The figure for SSAYAFEKSGRARPDKHSAG is less than -0.25; for YTRRVSGGCKTFSVSRVGPR it is less than -0.25. The figure for LDRPERGASSVNVPQTQNRT is less than -0.25; for ISHRAEHDFW it is less than -0.25; for TQRVSTVL it is less than -0.25. For SKIFNCSF, the growth estimate is less than -0.25. The figure for RSGA is less than -0.25; for VLVGCGFTSGR it is less than -0.25; for STRASVKT it is less than -0.25. For the substance LCSLVRVCSRY, the growth estimate was less than -0.25. In the case of HDRKPKWG it was less than -0.25; in that of GRSYYGFHSRAGKPVLSS, less than -0.25; in that of NYEAWVGGRDGPREES, less than -0.25. In the case of LPLSALGTMV it was less than -0.25. In the case of KVGSGPFGPSEQIVPPCCLI it was less than -0.25. For the substance TVPIGSWPKEAMNPSFKSFS, the growth estimate is less than -0.25. In the case of QQRIITIG it was less than -0.25. Consider STPTEYTRSHLVHQQLGRRC, for which the growth estimate was less than -0.25. The figure for LLQVFDRG is less than -0.25; for ASIRSFLPGLQSQERRGPVR it is less than -0.25. The figure for KCD is less than -0.25; for IPIAY it is less than -0.25. In the case of QECDTS it was less than -0.25. For IGTAYGGPRLFDRLGQKRCL, the growth estimate is less than -0.25. For TGRYEKGTL, the growth estimate was less than -0.25. The figure for FFTRCPG is less than -0.25. The figure for LNSPGDRCKEGGQ is less than -0.25; for PLLLSHISGSDRPSKRSVLT it is less than -0.25. The figure for LGN is -0.0494.

Consider DCICSLSHGSVLSRIVLATF, for which the growth estimate was less than -0.25.

In the case of FDDAGEVK, the growth estimate is less than -0.25. The figure for KRLGITYRLCMN is less than -0.25. Regarding VDQGYSITEHKARSNKYDTP, the growth estimate was less than -0.25.

Consider MYTKPMSWDIFTTLSRLQGL, for which the growth estimate was less than -0.25. In the case of GHVFDRFV it was -0.226. The figure for GLPGRQEQRSGLLVFGSIAA is less than -0.25. As for AMTGSSRLVIHR, the growth estimate was less than -0.25. The figure for KPKGSPIGYSCSHTEAI is less than -0.25. The figure for LAEDPKAQRICGPTRHLSV is less than -0.25. Turning to RGV, the growth estimate was less than -0.25. In the case of ARTFSGKFPSQSLPTLLSVA it was 0.007; in that of DVGKTPVGLVVSRSRGTEG, less than -0.25. Consider LGQPKGDQDHRRGRAGTGCL, for which the growth estimate is less than -0.25. In the case of GVLWSLSNSGTVDAFYVNCV it was less than -0.25; in that of IGPVGCGSSRIDA, less than -0.25.

In the case of RKGIRFRTMI, the growth estimate is less than -0.25. The figure for SAQSFGLIRKAGAVRQHQGG is less than -0.25; for VAGCGRDIQRVDSLLSSCRS it is less than -0.25; for DDEGTYCVNACKTP it is less than -0.253. In the case of LYVQPTVFVHPVGRVEAFCT it was less than -0.25; in that of TDSGSTLSKWHTEYSQLLFR, less than -0.25. In the case of ITSSSQDIDPGHSLGRLSQS it was less than -0.25. With TVFERSERNASTVKSVALSP, the growth estimate is less than -0.25. Consider VWYGASVQRSFHF, for which the growth estimate is less than -0.25. In the case of MVVAVQNPER it was less than -0.25.

On to YVPDRAD, for which the growth estimate was less than -0.25. In the case of NCGVG it was less than -0.25; in that of SSRLWLNVEQGARME, less than -0.25; in that of SGRFRQYD, less than -0.25. In the case of LRIVQLAGVCRR it was less than -0.25. With GLGERHR, the growth estimate was less than -0.25.

Take VIWVPGFG: the growth estimate is less than -0.25. In the case of TRA it was -0.248 ± 0.0039. The figure for TSMGFLLGLSPRS is less than -0.25.
